Counter-ions that a name gives are not always drawn. Some of the results follow. Repeats in this data set agree poorly, so a single value says little.
Test system: MDA-MB-468
Test: phospho-S6 immunofluorescence (DAPI-normalised), per-plate z-score; higher = higher phospho-S6 signal (less pathway suppression)
Conditions: 24 h
Description: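 GPCR-targeted compound library (MedChemExpress HY-L006) tested on MDA-MB-468 PTEN-null TNBC cells in 384-well plates at 0.1, 1 or 10 uM, combined with vehicle, GDC0941 450 nM or lapatinib 1 uM, for 24 h. Phospho-S6 (S240/244) immunofluorescence normalised to DAPI and expressed as a per-plate z-score; values are the mean of biological triplicates.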

[1] = compound 0.1 µM, co-treatment: GDC0941 450 nM
[2] = compound 0.1 µM, co-treatment: lapatinib 1 uM
[3] = compound 0.1 µM, co-treatment: vehicle
[4] = compound 1 µM, co-treatment: GDC0941 450 nM
[5] = compound 1 µM, co-treatment: lapatinib 1 uM
[6] = compound 1 µM, co-treatment: vehicle

SMILES | phospho-S6 immunofluorescence (z-score) [1] | phospho-S6 immunofluorescence (z-score) [2] | phospho-S6 immunofluorescence (z-score) [3] | phospho-S6 immunofluorescence (z-score) [4] | phospho-S6 immunofluorescence (z-score) [5] | phospho-S6 immunofluorescence (z-score) [6]
O=S(=O)(O)c1cc(O)ccc1O [Ethamsylate] | 0.12 | 0.02 | 1.29 | -0.82 | -0.07 | -0.35
CNCC(O)c1ccc(O)c(O)c1 [L-Epinephrine] | 0 | 1.93 | -0.58 | 0.41 | 3.56 | -0.06
CN1CCC(=C2c3ccccc3C=Cc3ccccc32)CC1 [Cyproheptadine (hydrochloride)] | 0.01 | 0.26 | 0.74 | 0.98 | -0.07 | 0.54
O=C(NCCCN1CCC2(CC1)OCc1ccccc12)[C@H]1CCCN1Cc1ccccc1 | -0.39 | -0.26 | -0.5 | 0.46 | -0.96 | -1.28
CC(C)[C@H](N=C(NS(=O)(=O)c1ccc(Cl)cc1)N1C[C@H](c2ccccc2)C(c2ccc(Cl)cc2)=N1)C(N)=O | 1.3 | 1.53 | 0.09 | 0.29 | -0.5 | 0.73
Cc1cc(NC(=O)NCCN2CCC(O)(Cc3ccccc3)CC2)c2ccccc2n1 [Palosuran] | -0.44 | 0.29 | 0.98 | -1.31 | 0.21 | 0.18
CN/C(=N\CCSCc1nc[nH]c1C)NC#N [Cimetidine] | 0.51 | -0.49 | -0.14 | 0.24 | 0.16 | -0.35
NC(=O)c1ccc[n+]([O-])c1 [Nicotinamide N-oxide] | -0.45 | 0.66 | 0.09 | -0.35 | 0.06 | 0.06
CN1CC2c3ccccc3Oc3ccc(Cl)cc3C2C1 (stereo not given) [Asenapine (maleate)] | -0.48 | -0.48 | 0.09 | 0.27 | 0.72 | -0.38
CCN(CC)CCOC(=O)[C@@H](Cc1cccc2ccccc12)C[C@@H]1CCCO1 [Naftidrofuryl (oxalate)] | -1.21 | -0.78 | -1.62 | -1.03 | -0.83 | -2.09
CN1C2CCCC1CC(NC(=O)c1nn(C)c3ccccc13)C2 (stereo not given) [Granisetron (Hydrochloride)] | -0.11 | -0.57 | -0.61 | 0.3 | 0.16 | 0.15
C[C@H](Nc1cc(NS(=O)(=O)N2CCC2)nc(SCc2cccc(F)c2F)n1)[C@@H](O)CO | -2.14 | -1.69 | -0.88 | -1.16 | -0.41 | -1.02
Brc1c(NC2=NCCN2)ccc2nccnc12 [UK 14,304 (tartrate)] | 2.07 | 0.5 | 1.81 | 1.11 | 0.87 | 1.86
CCN(Cc1ccncc1)C(=O)C(CO)c1ccccc1 (stereo not given) [Tropicamide] | 0.09 | 0.79 | -0.48 | -0.53 | 1.03 | -0.97
OCC1OC(n2cnc3c(NCCc4ccccc4)ncnc32)C(O)C1O (stereo not given) [N6-(2-Phenylethyl)adenosine] | -0.14 | 0.25 | -0.46 | 0.74 | 1.78 | 0.77
CCCN(CCC)CCc1cccc2c1CC(=O)N2 [Ropinirole (hydrochloride)] | 0.47 | -0.58 | -0.26 | 0.29 | 0.27 | 0.23
CCC(N)(C(=O)O)c1ccc(C(=O)O)cc1 (stereo not given) | -0.09 | -1.11 | -1.31 | 0.2 | -0.25 | -0.72
COCc1nnc(N2CC(Oc3ccc(F)cc3Cl)C2)n1-c1ccc(OC)nc1 | -0.18 | 0.35 | -0.31 | -0.37 | 1.67 | -0.5
C=CCN1CCc2c(cc(O)c(O)c2Cl)C(c2ccccc2)C1 (stereo not given) | 3.67 | 1.42 | 2.13 | 2.02 | 2.02 | 2.8
CCN(CC)CC#CCOC(=O)C(O)(c1ccccc1)C1CCCCC1 (stereo not given) [Oxybutynin] | -0.85 | -0.28 | 1.15 | 0.12 | 0.18 | 0.18
O=C1Cc2cc(CCN3CCN(c4nsc5ccccc45)CC3)c(Cl)cc2N1 [Ziprasidone (hydrochloride monohydrate)] | 0.4 | 0.5 | -0.15 | -0.23 | 0.92 | -1.2
CCc1ccc(OCc2ccccc2C(=O)Nc2ccc3nc(C)cc(N)c3c2)cc1 | -0.75 | -0.05 | -0.57 | 1.06 | 0.31 | 1.08
O=c1n(CCCN2CCN(c3cccc(Cl)c3)CC2)nc2ccccn12 [Trazodone (hydrochloride)] | -0.6 | -1.05 | -0.97 | 0.62 | -0.2 | -0.57
COc1cc(N)cn[n+]1-c1ccccc1 [Amezinium (methylsulfate)] | 0.57 | 1.15 | -0.07 | 0.07 | 0.99 | -0.23
CCCCOc1ccc(C(=O)Nc2ccc(F)cc2F)cc1 | 0.41 | 0.4 | 1.4 | 2.18 | -1.36 | 0.99

A different layout for 6 compounds above.
SMILES,phospho-S6 immunofluorescence (z-score) [1],phospho-S6 immunofluorescence (z-score) [2],phospho-S6 immunofluorescence (z-score) [3],phospho-S6 immunofluorescence (z-score) [4],phospho-S6 immunofluorescence (z-score) [5],phospho-S6 immunofluorescence (z-score) [6]
O=S(=O)(O)c1cc(O)ccc1O [Ethamsylate],0.12,0.02,1.29,-0.82,-0.07,-0.35
"Brc1c(NC2=NCCN2)ccc2nccnc12 [UK 14,304 (tartrate)]",2.07,0.5,1.81,1.11,0.87,1.86
CCN(Cc1ccncc1)C(=O)C(CO)c1ccccc1 (stereo not given) [Tropicamide],0.09,0.79,-0.48,-0.53,1.03,-0.97
O=c1n(CCCN2CCN(c3cccc(Cl)c3)CC2)nc2ccccn12 [Trazodone (hydrochloride)],-0.6,-1.05,-0.97,0.62,-0.2,-0.57
COc1cc(N)cn[n+]1-c1ccccc1 [Amezinium (methylsulfate)],0.57,1.15,-0.07,0.07,0.99,-0.23
CCCCOc1ccc(C(=O)Nc2ccc(F)cc2F)cc1,0.41,0.4,1.4,2.18,-1.36,0.99

Reference: the supplement of paper PMC7411640
